# Results of single-concentration screens

From ChEMBL document CHEMBL3988442, “University of Dundee, Small-Polar-MMV Screening Library” (2021).

Mtb glucose medium: 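Growth of Mycobacterium tuberculosis over 3 days (7H9 medium with glucose and tyloxapol); the read-out is not stated. Compounds at 50 µM. Higher reads as more growth inhibition (inferred: compounds with an IC50 in retests scored well above the rest). Of about 69,000 compounds tested this way, about 760 (1.1%) reached 50% or more in at least one test.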
Mtb cholesterol medium: 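Growth of Mycobacterium tuberculosis over 4 days (cholesterol / DPPC medium with tyloxapol); the read-out is not stated. Tested at 50 µM. The record gives no direction; compounds that gave an IC50 in retests scored well above the rest, so higher reads as more growth inhibition. About 69,000 compounds were tested under these conditions; 0.54% (about 370) showed 50% or more at least once.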

The filed quantity is “Percent Effect” (%).
The record does not define 0% and 100%; most values in the screen are far below 50% and negative numbers occur (in some assays of this library far below -100).
The compounds are a random part of those screened.
Two or more numbers in one place are separate tests of the same structure; such repeats can differ widely.

structure,Mtb glucose medium,Mtb cholesterol medium
Cc1nn(C)c(C)c1C1CCCN1CCCc1nc2ccccc2o1 (centres unmarked),37.47%,16.36%
Cc1nc(CN2CCC(c3cc(N4CCCC4)ncn3)CC2)cs1,20.23%,-3.685%
Cn1nnc2c1C(COCC1CC1)CN(Cc1ccoc1)C2.O=C(O)C(F)(F)F (centres unmarked),6.024%,-11.12%
O=C(c1cccnc1)N1CCCC(c2ncncc2-c2ccncc2)C1 (centres unmarked),-26.08%,-20.73%
CCc1cnc(N2CCC3(CC2)CCN(c2cnn(C)c2)C3=O)nc1,29.82% & 19.41%,21.7%
CS(=O)(=O)N1CCCC12CCCN(S(=O)(=O)c1ccc(F)c(F)c1)C2 (centres unmarked),14.99%,18.43%
O=C(O)C(F)(F)F.O=C(O)C(F)(F)F.c1cn2c(n1)CN(C1CCOCC1)CC(CN1CCCC1)C2 (centres unmarked),-17.66% & -2.266%,-97.87% & -3.367%
O=C(O)C(F)(F)F.O=C(O)C(F)(F)F.[H][C@@]12CN(C(=O)c3ccccn3)C[C@]1([H])OCCN2C(C)C,27.04%,-8.892%
Nc1cc(-c2cccc3c2CCNC3)ncn1,4.183%,23.61%
O=C(O)C(F)(F)F.O=C(O)C(F)(F)F.[H][C@@]12CN(C(=O)c3ccoc3C)C[C@]1([H])OCCN2CCN1CCCC1,-16.18%,4.748% & 7.574%
CCOCC1CN(C(=O)c2cccc(C)n2)Cc2cnn(C)c21 (centres unmarked),11.41%,6.114%
COc1ccc(C)cc1CN(C)CC(N)=O,-48.04%,-33.86%
O=C(O)C(F)(F)F.O=C(O)C(F)(F)F.c1cncc(-c2nnn3c2COCC(CNCC2CCOCC2)C3)c1 (centres unmarked),-4.507%,4.022%
CS(=O)(=O)c1ccccc1C(=O)NCC1Cc2ccccc2O1 (centres unmarked),-23.91% & -6.42%,-37.95%
CC(=O)N1CCc2c(nc(N(C)C)nc2N(C)CCO)C1,13.97%,-6.498%
O=C(O)C(F)(F)F.O=C(O)C(F)(F)F.O=C(O)C(F)(F)F.[H][C@@]12C[C@H](C(=O)NCCN(C)C)N(C)[C@]1([H])CN(c1ncccn1)C2,21.53%,-4.678%
COCC(=O)N1CCN(C(=O)C2(c3ccc(C)c(OC)c3)CC2)CC1,0.2972%,12.52%
COCCN(Cc1sccc1C)C(=O)C1CCCN(C(N)=O)C1 (centres unmarked),-19.05%,-27.34%
CCc1noc(CN2CCN(C(=O)Cc3ccc(F)cc3)CC2)n1,9.901%,7.555% & 5.094%
O=C(O)C(F)(F)F.[H][C@@]12CCN(Cc3nc(C)cs3)C[C@@]1([H])O[C@@H](c1nc(C)no1)C2,-9.014%,10.13%
Cc1cc(C)n(-c2ccc(N3CCC4(CC3)OCCO4)nc2)n1,15.09%,-4.367%
O=C(c1cccs1)N1CCC2(CC1)CN(c1ccsc1)C(=O)CO2,1.784%,-6.713% & 83.76%
Cc1nnc(C(C)NCC2(c3c(F)cccc3F)CCCC2)o1 (centres unmarked),-14.34%,-3.2%
O=C(c1ccc(-n2ccnc2)cc1)N1CCN(c2cnccn2)CC1,-11.39% & -0.02034%,-23.72%
CCc1c(C)sc2c1c(N)nc(=O)n2CCN1CCOCC1,-15.9% & 0.5846%,13.16%
NC(=O)C1CCN(C(=O)Cc2ccc(Cl)c(Cl)c2)CC1,-14.81%,-27.76%
CCN(CC)c1ncccc1CNCc1ccc(Cl)s1,28.47%,17.09%
Cc1csc(CCNC(=O)C2CCOC2)n1 (centres unmarked),6.216%,2.653%
Cc1cc(C(C)NC(=O)c2ccc(O)nc2)c(C)o1 (centres unmarked),-27.03%,-8.407%
O=C(CC1CCCC1)N1CCCC1c1nc(O)cc(-c2ccccn2)n1 (centres unmarked),-2.269%,-2.039%
Cc1nc2c(c(=O)n1C)CCN(Cc1cc3cc[nH]c3cn1)CC2,-17.52%,-17.87%
Cc1nc(CNC(=O)CCN2CCN(c3ccccc3)CC2)oc1C,4.253% & 0.7814%,-5.58%
CC(C)CC(=O)N1CCCn2cnc(CN3CCCC3=O)c2C1,17.05%,7.874%
O=C(C1CCCO1)N1CCC2(CC1)COCCN(Cc1ccncc1)C2.O=C(O)C(F)(F)F.O=C(O)C(F)(F)F (centres unmarked),-28.02%,-18.54% & -6.672%
Cc1cn(CC(=O)NC2CCC(C(=O)O)CC2)c2ccccc12 (centres unmarked),17.55%,-5.256%
O=C(CCc1nc(Cl)n[nH]1)N[C@H]1CC[C@H]1NC1Cc2ccccc2C1,0.421%,8.377%
CN(C)C(C(=O)N1CCN(CCn2cccc2)CC1)c1ccc(F)cc1 (centres unmarked),-31.68% & 4.768%,10.84%
Cc1cc(C)n(CC2CCCN2C(=O)c2c(C)noc2C)n1 (centres unmarked),-50.54%,-33.13%
O=C(c1cccc(CO)n1)N1CCOC(c2ccc(Cl)c(Cl)c2)C1 (centres unmarked),9.93%,3.576%
Cc1nn(C)cc1S(=O)(=O)N[C@@H]1CCC[C@@H](n2ccnc2)[C@@H]1O,15.66%,9.568%
COCC1CN(C(=O)Cc2ccccn2)Cc2ncnn2C1.O=C(O)C(F)(F)F (centres unmarked),0.5899% & -4.477%,-1.169%
CNCc1cc(F)ccc1Oc1ccc(F)cc1,6.333%,-15.02%
Cc1nccc(CNC(=O)CCc2c(C)nc3cc(O)nn3c2C)n1,3.058%,-16.36%
CN(C)C(=O)Cc1nc(CN2CCCCC2Cn2cncn2)cs1 (centres unmarked),17.29%,-5.026%
COCCCC1(CO)CCCN(C(=O)c2cnc(C3CC3)nc2)C1 (centres unmarked),12.51% & -4.58%,-4.496%
O=C1N(c2ccc(F)cc2)Cc2n[nH]c(=O)n21,9.269%,2.745%
Cc1ccc(Oc2ncccc2CNC(=O)NC2CCCCC2)cn1,4.225% & 4.88%,19.05%
Cc1cc(C(=O)O)ccc1NS(=O)(=O)c1c(C)nn(C(C)C)c1C,15.08%,-9.926%
O=C(Nc1cccn(CC(F)(F)F)c1=O)c1ccc(F)cc1,14.95%,-13.74%
CC(O)CN(c1ccccc1)S(=O)(=O)c1cc(C(=O)O)cc2c1CCC2 (centres unmarked),8.116%,-11.27%
C1CC(c2noc(C3CC3)n2)CN(Cc2noc(C3CC3)n2)C1 (centres unmarked),20.96%,9.916%
N#CC1(NC(=O)CNCCn2cccn2)CCCCC1,-39.62%,-12.3%
CC(C)(Cn1cnc(-c2ccccc2)c1-c1ccco1)N1CCOCC1,8.217%,3.361%
CS(=O)(=O)N1CCC2(CC1)CN(CC1CC1)CC21CCNC1=O.O=C(O)C(F)(F)F (centres unmarked),-18.22%,-7.958%
COc1ccc(CNC(=O)C2(C#N)CCCC2)cc1,2.503% & -9.951%,-13.15%
c1ccc(OCCCNCc2cccs2)nc1,8.591%,14.89%
COCC1c2c(cnn2C)CCN1C(=O)c1cc(C)on1.O=C(O)C(F)(F)F (centres unmarked),-14.13%,-9.546%
O=C(O)C(F)(F)F.[H][C@@]12CCN(c3cnccn3)C[C@]1([H])CN(C(=O)CC1CC1)C2,31.28%,20.8%
CN(Cc1ccccn1)C(=O)CC1CCOc2ccccc21 (centres unmarked),-2.835%,-12.67%
CCn1cc(CNC2CC(=O)N(CCc3cccc(Cl)c3)C2)cn1 (centres unmarked),11.22%,-11.76%
CN(Cc1ccc2c(c1)OCO2)C(=O)c1ccc(C2CCCNC2)cc1 (centres unmarked),36.16%,10.52%
Cc1noc2ncc(C(=O)N3CCCC3c3ccsc3)cc12 (centres unmarked),6.078%,-8.757%
CC(C)Cc1ncc2c(n1)CN(c1cc(N)nc(N)n1)C2,-1.963%,-8.763%
Cc1c(NC(=O)c2noc3c2CCCC3)cnn1C,-21.24%,-9.118%
O=C(CN1CCS(=O)(=O)CC1)Nc1ccc(N2CCCC2)nc1,-0.1688%,-1.018%
O=c1[nH]nc(CCCN2CCOCC2)n1-c1ccc(F)cc1F,-43.38% & -7.083%,-4.221%
[H][C@]12CCCC(OCc3cccnc3)[C@@]1([H])CN(C(=O)c1cccc(F)c1)C2 (some centres unmarked),5.61% & 16.46%,2.129%
Cc1nc(CNC(=O)[C@@H]2CCCN2C(=O)OC(C)(C)C)cs1,9.506%,-13.22%
N#Cc1cccnc1N1CCC(Nc2ccccc2)C1 (centres unmarked),6.121%,-21.86%
CC1CCN(CC2CCN(C(=O)c3c[nH]c4ncccc34)CC2)CC1,-15.96%,-16.69%
O[C@H]1COCCN(Cc2cccc(C(F)(F)F)c2)C1,-4.222% & -30.86%,-10.3%
CC1CS(=O)(=O)CCN1CCCc1ccc(Cl)cc1 (centres unmarked),6.576% & -7.769%,-7.811%

9 of the entries, repeated:

With Cc1noc2ncc(C(=O)N3CCCC3c3ccsc3)cc12 (centres unmarked) the screen gave Mtb glucose medium: 6.078%; Mtb cholesterol medium: -8.757%.
With COCC1c2c(cnn2C)CCN1C(=O)c1cc(C)on1.O=C(O)C(F)(F)F (centres unmarked) the screen gave Mtb glucose medium: -14.13%; Mtb cholesterol medium: -9.546%.
With O=C(c1cccnc1)N1CCCC(c2ncncc2-c2ccncc2)C1 (centres unmarked) the screen gave Mtb glucose medium: -26.08%; Mtb cholesterol medium: -20.73%.
With O=C(CCc1nc(Cl)n[nH]1)N[C@H]1CC[C@H]1NC1Cc2ccccc2C1 the screen gave Mtb glucose medium: 0.421%; Mtb cholesterol medium: 8.377%.
With [H][C@]12CCCC(OCc3cccnc3)[C@@]1([H])CN(C(=O)c1cccc(F)c1)C2 (some centres unmarked) the screen gave Mtb glucose medium: 5.61% & 16.46%; Mtb cholesterol medium: 2.129%.
With COc1ccc(CNC(=O)C2(C#N)CCCC2)cc1 the screen gave Mtb glucose medium: 2.503% & -9.951%; Mtb cholesterol medium: -13.15%.
With Cc1cc(C)n(CC2CCCN2C(=O)c2c(C)noc2C)n1 (centres unmarked) the screen gave Mtb glucose medium: -50.54%; Mtb cholesterol medium: -33.13%.
With CS(=O)(=O)c1ccccc1C(=O)NCC1Cc2ccccc2O1 (centres unmarked) the screen gave Mtb glucose medium: -23.91% & -6.42%; Mtb cholesterol medium: -37.95%.
With O=C(c1ccc(-n2ccnc2)cc1)N1CCN(c2cnccn2)CC1 the screen gave Mtb glucose medium: -11.39% & -0.02034%; Mtb cholesterol medium: -23.72%.